Laboratory results published in the supplement of paper PMC10849652.
This is one part of the list.

Amino acid sequences for entries named in this document (tags omitted). A change or cut given only in a name is not applied to a line headed by its entry.
UniProt Q86VR2, whole entry, looked up: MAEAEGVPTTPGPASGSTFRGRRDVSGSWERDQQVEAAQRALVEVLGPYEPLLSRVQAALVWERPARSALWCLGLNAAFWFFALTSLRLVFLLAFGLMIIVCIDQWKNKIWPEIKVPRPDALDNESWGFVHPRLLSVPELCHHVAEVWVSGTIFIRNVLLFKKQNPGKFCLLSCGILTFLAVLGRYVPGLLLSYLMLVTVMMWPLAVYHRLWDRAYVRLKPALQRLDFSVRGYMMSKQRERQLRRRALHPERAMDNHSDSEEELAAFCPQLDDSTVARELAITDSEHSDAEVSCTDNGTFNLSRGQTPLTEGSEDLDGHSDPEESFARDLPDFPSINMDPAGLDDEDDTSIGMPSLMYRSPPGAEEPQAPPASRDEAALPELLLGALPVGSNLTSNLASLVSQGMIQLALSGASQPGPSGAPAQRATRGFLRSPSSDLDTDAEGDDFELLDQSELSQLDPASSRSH
UniProt Q96DM3: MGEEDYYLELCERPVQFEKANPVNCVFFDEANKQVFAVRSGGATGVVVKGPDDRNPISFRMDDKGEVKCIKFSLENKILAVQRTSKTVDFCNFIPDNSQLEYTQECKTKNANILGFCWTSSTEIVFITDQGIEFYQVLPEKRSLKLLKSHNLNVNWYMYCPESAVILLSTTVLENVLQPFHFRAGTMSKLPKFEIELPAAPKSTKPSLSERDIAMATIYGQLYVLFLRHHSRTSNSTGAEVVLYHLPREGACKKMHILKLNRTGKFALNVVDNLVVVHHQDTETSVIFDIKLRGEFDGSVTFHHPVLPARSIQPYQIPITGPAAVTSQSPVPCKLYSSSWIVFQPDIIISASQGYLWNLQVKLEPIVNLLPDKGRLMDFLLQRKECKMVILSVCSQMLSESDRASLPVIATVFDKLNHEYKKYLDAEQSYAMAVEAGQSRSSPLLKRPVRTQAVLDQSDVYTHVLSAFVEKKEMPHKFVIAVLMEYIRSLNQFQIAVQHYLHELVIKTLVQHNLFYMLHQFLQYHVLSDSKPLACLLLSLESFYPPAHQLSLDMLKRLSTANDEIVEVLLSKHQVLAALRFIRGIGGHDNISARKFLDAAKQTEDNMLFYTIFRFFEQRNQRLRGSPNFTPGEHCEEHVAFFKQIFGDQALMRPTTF
UniProt Q02094: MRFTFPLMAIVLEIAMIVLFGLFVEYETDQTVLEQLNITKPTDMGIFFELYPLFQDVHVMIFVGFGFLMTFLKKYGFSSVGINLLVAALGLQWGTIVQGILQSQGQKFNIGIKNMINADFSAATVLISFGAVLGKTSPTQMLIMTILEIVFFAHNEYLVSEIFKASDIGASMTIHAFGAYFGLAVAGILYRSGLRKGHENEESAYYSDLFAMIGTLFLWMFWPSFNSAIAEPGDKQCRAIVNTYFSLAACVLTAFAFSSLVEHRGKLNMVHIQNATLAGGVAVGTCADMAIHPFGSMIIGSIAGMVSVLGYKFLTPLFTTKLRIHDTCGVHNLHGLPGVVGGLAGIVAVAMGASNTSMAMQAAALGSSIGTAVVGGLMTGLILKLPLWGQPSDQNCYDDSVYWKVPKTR
UniProt Q96PM5: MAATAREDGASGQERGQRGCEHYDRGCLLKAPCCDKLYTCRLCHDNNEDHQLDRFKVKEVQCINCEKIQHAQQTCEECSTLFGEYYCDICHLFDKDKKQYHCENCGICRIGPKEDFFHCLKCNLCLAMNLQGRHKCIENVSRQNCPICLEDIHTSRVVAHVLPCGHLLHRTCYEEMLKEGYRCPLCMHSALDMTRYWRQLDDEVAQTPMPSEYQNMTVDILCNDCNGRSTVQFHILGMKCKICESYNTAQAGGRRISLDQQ
UniProt P40938, whole entry, looked up: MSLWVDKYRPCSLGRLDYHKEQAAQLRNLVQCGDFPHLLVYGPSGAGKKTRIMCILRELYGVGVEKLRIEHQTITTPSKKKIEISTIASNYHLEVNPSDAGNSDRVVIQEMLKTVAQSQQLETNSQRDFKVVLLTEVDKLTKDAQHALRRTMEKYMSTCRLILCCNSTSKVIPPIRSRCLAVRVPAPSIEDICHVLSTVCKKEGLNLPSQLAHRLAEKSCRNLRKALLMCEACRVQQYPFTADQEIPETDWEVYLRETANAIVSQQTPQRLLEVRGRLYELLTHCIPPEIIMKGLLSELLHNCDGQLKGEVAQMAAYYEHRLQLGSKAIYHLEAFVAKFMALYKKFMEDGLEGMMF
UniProt P35250, whole entry, looked up: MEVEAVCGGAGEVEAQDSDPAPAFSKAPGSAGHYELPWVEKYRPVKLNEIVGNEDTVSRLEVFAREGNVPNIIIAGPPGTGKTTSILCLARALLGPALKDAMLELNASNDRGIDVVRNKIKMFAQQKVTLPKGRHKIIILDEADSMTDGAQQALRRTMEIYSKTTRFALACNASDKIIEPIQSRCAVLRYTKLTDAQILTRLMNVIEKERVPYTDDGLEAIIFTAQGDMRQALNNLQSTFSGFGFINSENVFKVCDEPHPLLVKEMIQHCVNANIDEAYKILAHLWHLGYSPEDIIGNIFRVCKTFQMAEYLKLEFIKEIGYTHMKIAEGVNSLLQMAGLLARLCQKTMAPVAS
UniProt P84095: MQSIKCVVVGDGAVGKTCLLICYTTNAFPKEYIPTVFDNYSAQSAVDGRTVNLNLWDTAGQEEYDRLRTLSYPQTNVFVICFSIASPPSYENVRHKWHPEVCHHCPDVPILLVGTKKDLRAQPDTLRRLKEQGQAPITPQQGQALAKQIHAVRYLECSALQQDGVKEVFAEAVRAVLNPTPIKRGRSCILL
UniProt Q4ADV7: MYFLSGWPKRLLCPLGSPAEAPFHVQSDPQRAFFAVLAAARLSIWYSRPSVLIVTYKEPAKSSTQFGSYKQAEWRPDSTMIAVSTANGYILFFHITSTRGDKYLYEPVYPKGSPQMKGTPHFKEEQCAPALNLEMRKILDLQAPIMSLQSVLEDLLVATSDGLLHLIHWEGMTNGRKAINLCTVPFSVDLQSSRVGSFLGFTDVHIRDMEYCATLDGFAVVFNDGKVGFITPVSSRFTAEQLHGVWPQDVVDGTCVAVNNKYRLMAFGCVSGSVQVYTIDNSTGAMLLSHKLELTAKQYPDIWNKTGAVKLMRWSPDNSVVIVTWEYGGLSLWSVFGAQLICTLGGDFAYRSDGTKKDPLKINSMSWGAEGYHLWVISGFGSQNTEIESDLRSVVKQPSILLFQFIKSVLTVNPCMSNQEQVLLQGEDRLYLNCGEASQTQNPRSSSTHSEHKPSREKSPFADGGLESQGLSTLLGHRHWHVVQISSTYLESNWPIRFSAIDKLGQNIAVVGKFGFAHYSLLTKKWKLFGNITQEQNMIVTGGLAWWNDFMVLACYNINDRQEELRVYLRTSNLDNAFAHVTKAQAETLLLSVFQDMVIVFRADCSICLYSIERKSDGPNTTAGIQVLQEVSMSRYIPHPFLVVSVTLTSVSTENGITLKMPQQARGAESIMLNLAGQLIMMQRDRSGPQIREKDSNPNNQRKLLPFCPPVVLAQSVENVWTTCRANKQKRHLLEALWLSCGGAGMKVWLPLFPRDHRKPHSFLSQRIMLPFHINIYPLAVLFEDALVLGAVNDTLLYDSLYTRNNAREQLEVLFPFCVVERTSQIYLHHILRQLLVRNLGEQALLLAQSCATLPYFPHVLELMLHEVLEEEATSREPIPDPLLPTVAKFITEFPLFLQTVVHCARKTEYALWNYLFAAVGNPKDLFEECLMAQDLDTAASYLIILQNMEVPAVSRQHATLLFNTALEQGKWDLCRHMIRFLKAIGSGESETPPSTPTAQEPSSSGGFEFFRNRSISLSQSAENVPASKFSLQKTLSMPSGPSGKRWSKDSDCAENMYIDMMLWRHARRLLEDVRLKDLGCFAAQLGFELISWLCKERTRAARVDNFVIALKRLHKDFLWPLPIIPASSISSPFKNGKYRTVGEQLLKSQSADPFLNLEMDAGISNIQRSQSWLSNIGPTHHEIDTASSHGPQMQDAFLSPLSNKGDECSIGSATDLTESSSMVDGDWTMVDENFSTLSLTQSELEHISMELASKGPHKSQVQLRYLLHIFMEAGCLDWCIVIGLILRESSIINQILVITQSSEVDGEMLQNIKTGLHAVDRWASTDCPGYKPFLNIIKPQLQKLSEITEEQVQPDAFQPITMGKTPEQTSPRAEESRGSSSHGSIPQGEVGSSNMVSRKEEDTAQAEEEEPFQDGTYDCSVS
UniProt Q969G6: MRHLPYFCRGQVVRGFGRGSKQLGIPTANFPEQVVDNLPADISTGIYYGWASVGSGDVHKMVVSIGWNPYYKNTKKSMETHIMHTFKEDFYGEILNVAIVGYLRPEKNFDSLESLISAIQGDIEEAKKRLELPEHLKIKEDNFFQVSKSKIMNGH
UniProt Q6JBY9, whole entry, looked up: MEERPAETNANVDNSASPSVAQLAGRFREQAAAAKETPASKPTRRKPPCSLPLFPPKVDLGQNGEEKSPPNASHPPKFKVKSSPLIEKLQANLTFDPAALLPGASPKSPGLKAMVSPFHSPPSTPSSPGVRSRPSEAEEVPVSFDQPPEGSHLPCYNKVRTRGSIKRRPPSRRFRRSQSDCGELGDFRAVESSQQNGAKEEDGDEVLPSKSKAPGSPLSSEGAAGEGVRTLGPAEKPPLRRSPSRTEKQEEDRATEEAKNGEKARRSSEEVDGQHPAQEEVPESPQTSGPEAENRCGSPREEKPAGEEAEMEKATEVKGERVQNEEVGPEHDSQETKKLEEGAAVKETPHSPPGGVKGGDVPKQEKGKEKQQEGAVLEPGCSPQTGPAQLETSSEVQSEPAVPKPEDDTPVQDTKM
UniProt Q9UKL0, whole entry, looked up: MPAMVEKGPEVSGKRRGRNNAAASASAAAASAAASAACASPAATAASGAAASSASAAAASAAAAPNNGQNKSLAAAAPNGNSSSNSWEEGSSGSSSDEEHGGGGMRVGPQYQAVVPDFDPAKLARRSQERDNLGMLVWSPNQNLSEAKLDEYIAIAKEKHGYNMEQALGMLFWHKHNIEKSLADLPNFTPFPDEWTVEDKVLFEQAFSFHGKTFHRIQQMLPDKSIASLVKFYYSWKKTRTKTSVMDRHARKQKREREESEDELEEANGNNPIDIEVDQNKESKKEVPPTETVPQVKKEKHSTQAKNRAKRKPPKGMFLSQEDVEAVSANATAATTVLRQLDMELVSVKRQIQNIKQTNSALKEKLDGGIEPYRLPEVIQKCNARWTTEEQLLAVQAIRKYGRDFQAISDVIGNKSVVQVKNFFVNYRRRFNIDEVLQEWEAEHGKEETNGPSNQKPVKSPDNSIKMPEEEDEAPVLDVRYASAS
UniProt Q96AA3: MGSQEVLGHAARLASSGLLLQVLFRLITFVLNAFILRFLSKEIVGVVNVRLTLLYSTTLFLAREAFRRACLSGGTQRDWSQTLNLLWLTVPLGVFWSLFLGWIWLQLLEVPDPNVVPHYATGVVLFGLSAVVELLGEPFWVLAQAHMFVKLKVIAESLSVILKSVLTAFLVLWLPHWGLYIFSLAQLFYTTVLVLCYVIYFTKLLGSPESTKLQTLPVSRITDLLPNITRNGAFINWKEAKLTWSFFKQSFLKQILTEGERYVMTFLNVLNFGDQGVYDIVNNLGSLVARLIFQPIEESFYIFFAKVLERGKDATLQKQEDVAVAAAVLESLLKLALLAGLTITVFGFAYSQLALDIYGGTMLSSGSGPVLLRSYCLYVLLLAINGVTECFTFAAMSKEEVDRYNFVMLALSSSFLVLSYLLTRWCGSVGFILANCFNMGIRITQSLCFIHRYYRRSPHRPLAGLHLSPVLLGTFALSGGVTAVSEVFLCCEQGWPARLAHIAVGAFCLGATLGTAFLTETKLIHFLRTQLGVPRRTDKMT
UniProt P52758: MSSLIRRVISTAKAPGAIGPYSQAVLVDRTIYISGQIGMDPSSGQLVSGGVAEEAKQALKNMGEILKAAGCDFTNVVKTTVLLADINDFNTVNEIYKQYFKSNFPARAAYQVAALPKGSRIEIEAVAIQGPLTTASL
UniProt Q06587: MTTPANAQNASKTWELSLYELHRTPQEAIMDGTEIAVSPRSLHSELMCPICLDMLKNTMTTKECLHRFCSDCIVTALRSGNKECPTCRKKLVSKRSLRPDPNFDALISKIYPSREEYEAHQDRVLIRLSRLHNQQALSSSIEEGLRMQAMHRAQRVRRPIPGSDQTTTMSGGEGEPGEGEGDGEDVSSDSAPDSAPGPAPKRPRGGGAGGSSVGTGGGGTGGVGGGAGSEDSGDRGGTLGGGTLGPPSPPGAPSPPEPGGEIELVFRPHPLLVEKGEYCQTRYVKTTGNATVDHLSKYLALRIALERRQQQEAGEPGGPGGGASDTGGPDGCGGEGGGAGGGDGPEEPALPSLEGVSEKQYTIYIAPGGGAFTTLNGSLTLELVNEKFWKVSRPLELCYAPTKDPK
UniProt Q15293: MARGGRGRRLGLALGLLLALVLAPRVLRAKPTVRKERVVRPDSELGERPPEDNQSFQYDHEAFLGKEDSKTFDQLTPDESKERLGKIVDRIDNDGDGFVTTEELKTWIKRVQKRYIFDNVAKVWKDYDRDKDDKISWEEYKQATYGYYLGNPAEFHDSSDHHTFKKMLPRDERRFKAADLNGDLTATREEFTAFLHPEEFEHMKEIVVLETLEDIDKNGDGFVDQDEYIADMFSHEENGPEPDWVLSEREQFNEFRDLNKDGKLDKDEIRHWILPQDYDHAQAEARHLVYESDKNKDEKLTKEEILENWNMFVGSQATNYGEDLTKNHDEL

How the values were obtained:
Test in all cases: log2 fold change, soluble protein after heating vs DMSO (PISA); higher = thermal stabilisation; K562 cells, 10 uM, 30 min; active = over 0.2 and 3.5 SD of the protein, either way, in both replicates (recomputed)
[1] = compound: CC1=C(C=C(C=C1)NC(=O)C2=CC(=CC=C2)C(C)(C)C#N)NC3=CC4=C(C=C3)N=CN(C4=O)C
Procedure, shortened: (§1)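 K562 cells (2×10^6 cells/mL) were treated with 10 μM compound for 30 min, and aliquots were heated for 3 min over 48°C-58°C. Pooled aliquots were extracted in PBS with 0.5% NP-40 at 4°C, and the supernatant after 21,000xg for 90 min was measured by TMTpro 16plex LC-MS/MS with channel sums equalised. Reported thermal stability, relative to control samples and from duplicates, is a log2 fold change.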

[2] = compound: CC1=C(C=C(C=C1)NC(=O)C2=CC(=CC=C2)N(C)C)NC(=O)C3=CC=C(C=C3)O
Procedure, shortened: as §1

[3] = compound: CC1=CC=C(C=C1)SC2=C3C=C(SC3=CN=C2)C(=O)N
Procedure, shortened: as §1

[4] = compound: CC1=NC(=CC=C1)C2=C(N=C(N2)C(C)(C)C)C3=CC4=NC=CN=C4C=C3
Procedure, shortened: as §1

Nexturastat A = compound: CCCCN(Cc1ccc(C(=O)NO)cc1)C(=O)Nc1ccccc1 [Nexturastat A]
Procedure, shortened: as §1

vemurafenib = compound: CCCS(=O)(=O)Nc1ccc(F)c(C(=O)c2c[nH]c3ncc(-c4ccc(Cl)cc4)cc23)c1F [vemurafenib]
Procedure, shortened: as §1

[5] = compound: CCCS(=O)(=O)Nc1ccc(F)c(C(=O)c2c[nH]c3ncc(Cl)cc23)c1F
Procedure, shortened: as §1

[6] = compound: CCCc1cc(C)[nH]c(=O)c1CNC(=O)c1cc(-c2ccnc(N3CCN(C)CC3)c2)cc2c1cnn2C(C)C
Procedure, shortened: as §1

givinostat = compound: CCN(CC)Cc1ccc2cc(COC(=O)Nc3ccc(C(=O)NO)cc3)ccc2c1 [givinostat]
Procedure, shortened: as §1

barasertib = compound: CCN(CCCOc1ccc2c(Nc3cc(CC(=O)Nc4cccc(F)c4)[nH]n3)ncnc2c1)CCOP(=O)(O)O [barasertib]
Procedure, shortened: as §1

Measured: log2 fold change

RETREG3 (UniProt Q86VR2)
inactive: [1] -0.006 | [2] 0.014 | [3] 0.148 | [4] 0.13 | Nexturastat A 0.062 | vemurafenib 0.043 | [5] 0.055 | [6] -0.044 | givinostat -0.048 | barasertib 0.023

RENBP (UniProt P51606)
inactive: [1] -0.029 | [2] -0.012 | [3] 0.022 | [4] -0.012 | Nexturastat A -0.117 | vemurafenib -0.006 | [5] -0.003 | [6] -0.033 | givinostat 0.004 | barasertib 0.015

RMC1 (UniProt Q96DM3)
inactive: [1] 0.037 | [2] 0.001 | [3] -0.051 | [4] 0.024 | Nexturastat A -0.031 | vemurafenib 0.061 | [5] 0.031 | [6] 0.021 | givinostat -0.013 | barasertib 0.039

RHAG (UniProt Q02094)
inactive: [1] 0.174 | [2] -0.009 | [3] 0.05 | [4] 0.195 | Nexturastat A 0.001 | vemurafenib 0.073 | [5] 0.192 | [6] -0.326 | givinostat 0.054 | barasertib -0.06

RMDN3 (UniProt Q96TC7)
inactive: [1] -0.006 | [2] -0.034 | [3] 0.01 | [4] 0.065 | Nexturastat A -0.065 | vemurafenib -0.01 | [5] 0.023 | [6] 0.009 | givinostat 0.068 | barasertib 0.024

RCHY1 (UniProt Q96PM5)
inactive: [1] 0.015 | [2] -0.065 | [3] 0.001 | [4] 0.083 | Nexturastat A -0.052 | vemurafenib -0.055 | [5] 0.023 | [6] -0.002 | givinostat -0.062 | barasertib 0.033

RCC2 (UniProt Q9P258)
inactive: [1] 0.006 | [2] -0.002 | [3] 0.004 | [4] 0.051 | Nexturastat A -0.081 | vemurafenib 0.005 | [5] 0.038 | [6] -0.011 | givinostat -0.035 | barasertib 0.005

RNF114 (UniProt Q9Y508)
inactive: [1] -0.005 | [2] -0.03 | [3] 0.013 | [4] 0.064 | Nexturastat A -0.036 | vemurafenib 0 | [5] 0.025 | [6] -0.059 | givinostat -0.004 | barasertib -0.014

RFC4 (UniProt P35249)
inactive: [1] 0.006 | [2] 0.026 | [3] 0.029 | [4] 0.042 | Nexturastat A -0.045 | vemurafenib -0.01 | [5] 0.037 | [6] -0.029 | givinostat -0.028 | barasertib 0.008

RIOX2 (UniProt Q8IUF8)
inactive: [1] -0.009 | [2] 0.036 | [3] 0.043 | [4] 0.152 | Nexturastat A 0.102 | vemurafenib -0.044 | [5] -0.037 | [6] -0.054 | givinostat -0.045 | barasertib -0.012

RFC3 (UniProt P40938)
inactive: [1] -0.003 | [2] -0.031 | [3] 0.05 | [4] 0.058 | Nexturastat A -0.032 | vemurafenib 0.048 | [5] 0.101 | [6] 0 | givinostat -0.007 | barasertib -0.011

RBM8A (UniProt Q9Y5S9)
inactive: [1] -0.025 | [2] -0.024 | [3] -0.02 | [4] 0.075 | Nexturastat A -0.069 | vemurafenib 0.024 | [5] -0.001 | [6] 0.04 | givinostat -0.032 | barasertib 0.043

RFC2 (UniProt P35250)
inactive: [1] 0.001 | [2] 0.016 | [3] 0.017 | [4] 0.04 | Nexturastat A -0.1 | vemurafenib -0.007 | [5] 0.033 | [6] -0.007 | givinostat -0.016 | barasertib 0.01

RHOG (UniProt P84095)
inactive: [1] 0.039 | [2] 0.031 | [3] -0.007 | [4] 0.02 | Nexturastat A -0.079 | vemurafenib -0.04 | [5] -0.023 | [6] -0.034 | givinostat -0.031 | barasertib 0.008

RHOT2 (UniProt Q8IXI1)
inactive: [1] -0.044 | [2] -0.012 | [3] 0.071 | [4] -0.017 | Nexturastat A 0.006 | vemurafenib 0.016 | [5] 0.069 | [6] -0.018 | givinostat 0.094 | barasertib 0.015

RBMX (UniProt P38159)
inactive: [1] 0.015 | [2] 0.009 | [3] -0.009 | [4] -0.019 | Nexturastat A 0.349 | vemurafenib 0.011 | [5] -0.006 | [6] 0.187 | givinostat 0.161 | barasertib -0.112

RIC1 (UniProt Q4ADV7)
inactive: [1] 0.046 | [2] 0.023 | [3] 0.065 | [4] 0.076 | Nexturastat A 0.094 | vemurafenib -0.061 | [5] 0.031 | [6] -0.194 | givinostat 0.116 | barasertib 0.144

RFK (UniProt Q969G6)
inactive: [1] -0.013 | [2] -0.042 | [3] 0.031 | [4] 0.096 | Nexturastat A -0.093 | vemurafenib 0.057 | [5] 0.039 | [6] -0.076 | givinostat -0.036 | barasertib -0.021

RCL1 (UniProt Q9Y2P8)
inactive: [1] -0.008 | [2] -0.006 | [3] 0.021 | [4] -0.12 | Nexturastat A 0.216 | vemurafenib -0.07 | [5] -0.016 | [6] 0.11 | givinostat 0.101 | barasertib -0.051

RCSD1 (UniProt Q6JBY9)
inactive: [1] -0.097 | [2] 0.013 | [3] -0.007 | [4] 0.044 | Nexturastat A 0.116 | vemurafenib -0.056 | [5] 0.034 | [6] -0.059 | givinostat 0.005 | barasertib -0.006

REXO2 (UniProt Q9Y3B8)
inactive: [1] -0.002 | [2] 0.024 | [3] 0.02 | [4] 0.007 | Nexturastat A -0.062 | vemurafenib 0.024 | [5] 0.005 | [6] -0.062 | givinostat -0.034 | barasertib -0.031

Two neighbouring records already listed, quoted:
RCSD1 (UniProt Q6JBY9)
inactive: [1] -0.097 | [2] 0.013 | [3] -0.007 | [4] 0.044 | Nexturastat A 0.116 | vemurafenib -0.056 | [5] 0.034 | [6] -0.059 | givinostat 0.005 | barasertib -0.006

REXO2 (UniProt Q9Y3B8)
inactive: [1] -0.002 | [2] 0.024 | [3] 0.02 | [4] 0.007 | Nexturastat A -0.062 | vemurafenib 0.024 | [5] 0.005 | [6] -0.062 | givinostat -0.034 | barasertib -0.031

Additional records:

RNF214 (UniProt Q8ND24)
inactive: [1] -0.083 | [2] -0.015 | [3] 0.007 | [4] -0.026 | Nexturastat A 0.125 | vemurafenib 0.073 | [5] 0.036 | [6] 0.049 | givinostat 0.047 | barasertib -0.018

RCOR1 (UniProt Q9UKL0)
inactive: [1] -0.061 | [2] -0.089 | [3] 0.037 | [4] 0.021 | Nexturastat A 0.054 | vemurafenib 0.016 | [5] 0.029 | [6] -0.032 | givinostat 0.114 | barasertib 0.01

RBM4 (UniProt Q9BWF3)
inactive: [1] -0.041 | [2] -0.033 | [3] -0.061 | [4] -0.034 | Nexturastat A 0.081 | vemurafenib 0.01 | [5] 0.052 | [6] 0.003 | givinostat 0.071 | barasertib 0.018

RBPJ (UniProt Q06330)
inactive: [1] -0.05 | [2] 0.077 | [3] 0.002 | [4] 0.026 | Nexturastat A -0.025 | vemurafenib -0.043 | [5] 0 | [6] 0.049 | givinostat -0.024 | barasertib -0.024

RFT1 (UniProt Q96AA3)
inactive: [1] 0.025 | [2] 0.04 | [3] -0.081 | [4] -0.066 | Nexturastat A -0.115 | vemurafenib -0.03 | [5] -0.12 | [6] -0.034 | givinostat -0.02 | barasertib 0.029

RIDA (UniProt P52758)
inactive: [1] -0.037 | [2] -0.012 | [3] 0.004 | [4] 0.032 | Nexturastat A 0.024 | vemurafenib 0.094 | [5] -0.025 | [6] -0.065 | givinostat -0.004 | barasertib 0.009

RING1 (UniProt Q06587)
inactive: [1] 0.046 | [2] -0.14 | [3] -0.007 | [4] 0.018 | Nexturastat A -0.012 | vemurafenib 0.205 | [5] 0.139 | [6] -0.005 | givinostat 0.095 | barasertib 0.049

RETSAT (UniProt Q6NUM9)
inactive: [1] 0.014 | [2] 0.025 | [3] 0.088 | [4] -0.037 | Nexturastat A -0.003 | vemurafenib -0.03 | [5] -0.077 | [6] -0.091 | givinostat 0.31 | barasertib 0.009

RCN1 (UniProt Q15293)
inactive: [1] -0.032 | [2] 0.025 | [3] -0.011 | [4] -0.038 | Nexturastat A -0.003 | vemurafenib -0.022 | [5] -0.006 | [6] -0.064 | givinostat 0.025 | barasertib 0.019
